In article PMC7862700 one finds binding signal data, which are given here for eleven sequences.

The list shows a part of the results, in another mix than the full data. For some of these results: At the low end of the ranking the order means little. This is one part of the list. For some of these results: The exact form of the protein is not confirmed.

For assay [1], the target named is T1, ETS1 (UniProt P14921).
T1 sequence: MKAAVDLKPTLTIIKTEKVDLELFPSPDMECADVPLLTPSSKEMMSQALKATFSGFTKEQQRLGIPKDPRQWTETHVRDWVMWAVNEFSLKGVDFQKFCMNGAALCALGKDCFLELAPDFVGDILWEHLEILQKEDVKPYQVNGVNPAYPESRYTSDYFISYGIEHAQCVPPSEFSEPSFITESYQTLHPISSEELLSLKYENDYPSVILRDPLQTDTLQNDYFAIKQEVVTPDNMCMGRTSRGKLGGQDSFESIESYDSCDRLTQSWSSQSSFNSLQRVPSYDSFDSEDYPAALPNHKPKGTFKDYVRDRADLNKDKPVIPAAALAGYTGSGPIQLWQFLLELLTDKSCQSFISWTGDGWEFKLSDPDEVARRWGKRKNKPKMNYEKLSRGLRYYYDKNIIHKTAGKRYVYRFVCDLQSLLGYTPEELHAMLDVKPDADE
Description: DAPPL (digital affinity profiling via proximity ligation, sequencing). Conditions: 10 mM Tris-HCl pH 7.5, 50 mM NaCl, 1 mM DTT, 4% glycerol, room temperature, 30 min; GST-TFs on glutathione beads, 16-mer random dsDNA library, 0.1% …; high values mean tight binding; double strand, one strand shown; scale: fold enrichment (6-mer frequency, TF over GST control).

The target of assay [2] is T2, SPDEF (UniProt O95238).
T2 sequence: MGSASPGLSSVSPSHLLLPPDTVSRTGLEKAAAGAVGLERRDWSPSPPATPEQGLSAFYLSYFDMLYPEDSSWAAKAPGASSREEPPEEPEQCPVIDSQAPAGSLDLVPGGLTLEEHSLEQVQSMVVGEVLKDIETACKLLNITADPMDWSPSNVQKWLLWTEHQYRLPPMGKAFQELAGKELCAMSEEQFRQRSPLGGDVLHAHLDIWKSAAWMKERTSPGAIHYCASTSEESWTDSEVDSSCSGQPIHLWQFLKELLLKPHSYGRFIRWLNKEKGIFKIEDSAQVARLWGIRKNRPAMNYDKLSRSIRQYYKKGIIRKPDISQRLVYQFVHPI
Described as above. Conditions: 10 mM Tris-HCl pH 7.5, 50 mM NaCl, 1 mM DTT, 4% glycerol, room temperature, 30 min; GST-TFs on glutathione beads, 16-mer random dsDNA library, 0.1% …; high values mean tight binding; double strand, one strand shown; scale: fold enrichment (6-mer frequency, TF over GST control).

For the sequence GCCCCC, the binding signal was 1.14 in assay [1] and 0.962 in assay [2].

On to ACCTTA, for which the binding signal is 1.24 in assay [1] and 1.3 in assay [2].

As for AACCTA, the binding signal in assay [1] was 1.11; in assay [2], 1.08.

On to GATTGC, for which the binding signal is 0.984 in assay [1] and 0.973 in assay [2].

For the sequence GGAAGT, the binding signal in assay [1] came to 2.8; in assay [2], 2.97.

As to ATGAAG, the values for the binding signal in assay [1] and in assay [2] were 1.04 and 1.07, respectively.

For GCCCAT, the values for the binding signal in assay [1] and in assay [2] were 1.09 and 0.92, respectively.

On to ATGCCG, for which the binding signal in assay [1] stood at 1.1; in assay [2], 1.13.

Consider CTTCCC, for which the results for the binding signal in assay [1] and in assay [2] were 2.15 and 2.14, respectively.

On to AGAGCT, for which the results for the binding signal in assay [1] and in assay [2] were 0.911 and 0.877, respectively.

Regarding CCCTAT, the binding signal was 1.32 in assay [1] and 1.31 in assay [2].
